According to patent US20160113265A1, “[…] AND METHODS THEREOF” (Lanodir USA, Inc., priority 2014, published 2016):

Test: PH3 sensor readings above and approximately 1 meter below the surface of fumigated barge cargo
Details: for ppm PH3 below the top surface: approximately 1 meter below surface
[1] = Experiment 1: 2,600 g PH3 (approximately 1.03 g PH3/ton cargo), 2,700 metric tons corn kernels, without turbine, 14 hours post injection
[2] = Experiment 1: 2,600 g PH3, without turbine, 32 hours post injection
[3] = Experiment 1: 2,600 g PH3, without turbine, 56 hours post injection
[4] = Experiment 1: 2,600 g PH3, without turbine, 80 hours post injection
[5] = Experiment 1: 2,600 g PH3, without turbine, approximately two weeks later upon arrival at destination port
[6] = Experiment 2: 2,200 g PH3 (approximately 0.814 g PH3/ton cargo), 2,700 metric tons corn kernels, with a turbine, 14 hours post injection
[7] = Experiment 2: 2,200 g PH3, with a turbine, 32 hours post injection
[8] = Experiment 2: 2,200 g PH3, with a turbine, 56 hours post injection
[9] = Experiment 2: 2,200 g PH3, with a turbine, 80 hours post injection
[10] = Experiment 2: 2,200 g PH3, with a turbine, approximately two weeks later upon arrival at destination port
[11] = Experiment 3: 1,700 g PH3, without auxiliary turbine, 32 hours post injection
[12] = Experiment 3: 1,700 g PH3, without auxiliary turbine, 56 hours post injection
[13] = Experiment 3: 1,700 g PH3, without auxiliary turbine, 80 hours post injection
[14] = Experiment 3: 1,700 g PH3, without auxiliary turbine, approximately two weeks later upon arrival at destination port
[15] = Experiment 4: nine additional barges fumigated as in Experiment 3, final reading approximately two weeks later upon arrival

## P [PH3, phosphine gas]
[1]
  ppm PH3 above the top surface: 0 ppm
  ppm PH3 below the top surface: 2000 ppm
[2]
  ppm PH3 above the top surface: 31 ppm
  ppm PH3 below the top surface: 1,500 ppm
[3]
  ppm PH3 above the top surface: 52 ppm
  ppm PH3 below the top surface: 1,356 ppm
[4]
  ppm PH3 above the top surface: 108 ppm
  ppm PH3 below the top surface: 1,300 ppm
[5]
  ppm PH3 above the top surface of the cargo: 0 ppm
  ppm PH3 below the top surface of the cargo: 0 ppm
[6]
  ppm PH3 above the top surface: 0 ppm
  ppm PH3 below the top surface: 1,700 ppm
[7]
  ppm PH3 above the top surface: 502 ppm
  ppm PH3 below the top surface: 1,025 ppm
[8]
  ppm PH3 above the top surface: 580 ppm
  ppm PH3 below the top surface: 1,000 ppm
[9]
  ppm PH3 above the top surface: 660 ppm
  ppm PH3 below the top surface: 112 ppm
[10]
  ppm PH3 above the top surface of the cargo: 0 ppm
  ppm PH3 below the top surface of the cargo: 0 ppm
Experiment 3: 1,700 g PH3 (approximately 0.620 g PH3/ton cargo), 2,700 metric tons corn kernels, without auxiliary turbine, delivery equipment air flow only, 14 hours post injection
  ppm PH3 above the top surface: 0 ppm
Experiment 3: 1,700 g PH3 (approximately 0.620 g PH3/ton cargo), 2,700 metric tons corn kernels, without auxiliary turbine, 14 hours post injection
  ppm PH3 below the top surface: 1,452 ppm
[11]
  ppm PH3 above the top surface: 150 ppm
  ppm PH3 below the top surface: 1,300 ppm
[12]
  ppm PH3 above the top surface: 225 ppm
  ppm PH3 below the top surface: 1,380 ppm
[13]
  ppm PH3 above the top surface: 270 ppm
  ppm PH3 below the top surface: 1,120 ppm
[14]
  ppm PH3 above the top surface of the cargo: 0 ppm
  ppm PH3 below the top surface of the cargo: 0 ppm
[15]
  ppm PH3 above the top surface of the cargo: 0 ppm
  ppm PH3 below the top surface of the cargo: 0 ppm
